The source of these data is article PMC7343282, “Tissue Distribution of Several Series of Cationic Surfactants in Rainbow Trout (Oncorhynchus mykiss) Following Exposure via Water” (Environmental Science & Technology, 2020).

A short description of this data set: Measured concentration in aquarium water. The conditions noted are these: for Concentration in water: mean concentration in aquarium water; for concentration in aquarium, % of intended: measured relative to intended concentration.

Take `CCCCCCCCCN` [P9, Nonylamine]: the Concentration in water is 46 ng mL^–1 and the “concentration in aquarium, % of intended” value stood at 92%.
The corresponding values for `CCCCCCCCCCCCN` [P12, Dodecylamine] are 12 ng mL^–1 and 47%.
The corresponding values for `CCCCCCCCCCCCCN` [P13, tridecylamine] are 3.7 ng mL^–1 and 37%.
With `CCCCCCCCCC[N+](C)(C)C` [Q10, N,N,N-trimethyl-1-decylammonium], the Concentration in water is given as 59 ng mL^–1 and the “concentration in aquarium, % of intended” value is given as 118%.
Consider `CCCCCCCCCCCCCC[N+](C)(C)C` [Q14, N,N,N-trimethyl-1-tetradecylammonium], for which the Concentration in water was determined as 1.3 ng mL^–1 and the “concentration in aquarium, % of intended” value stood at 50%.
For `CCCCCCCCCCCCNC` [S12, N-methyldodecylamine], the Concentration in water is given as 17 ng mL^–1 and the “concentration in aquarium, % of intended” value worked out at 67%.
Taken in the same sequence, the figures for `CCCCCCCCCCCCCCCCNC` [S16, N-methylhexadecylamine] were 0.93 ng mL^–1 and 37%.
`CCCCCCCCCN(C)C` [T9, N,N-dimethylnonylamine]: the Concentration in water is 52 ng mL^–1 and the “concentration in aquarium, % of intended” value is on record as 104%.
The corresponding values for `CCCCCCCCCCN(C)C` [T10, N,N-dimethyldecylamine] are 21 ng mL^–1 and 82%.
Regarding `CCCCCCCCCCCCCN(C)C` [T13, N,N-dimethyltridecylamine], the Concentration in water stood at 3.1 ng mL^–1 and the “concentration in aquarium, % of intended” value is 31%.
Taken in the same sequence, the figures for `CCCCCCCCCCCCCCN(C)C` [T14, N,N-dimethyltetradecylamine] were 0.49 ng mL^–1 and 20%.
